Laboratory results from article doi:10.1101/358242.
Results are given in words; binding and its absence hold for the method and conditions named. Binding can be weak; no strength is given. Where a sequence is shown, tags or fusion partners need not be part of it. For some of these results: Binding seen in cells or lysates may run through a third protein.

By UniProt entry, the sequences of proteins in these tests, tags left out. Where a name states a change or a piece, a line headed by the entry shows the natural chain unless it says otherwise.
UniProt Q8N635: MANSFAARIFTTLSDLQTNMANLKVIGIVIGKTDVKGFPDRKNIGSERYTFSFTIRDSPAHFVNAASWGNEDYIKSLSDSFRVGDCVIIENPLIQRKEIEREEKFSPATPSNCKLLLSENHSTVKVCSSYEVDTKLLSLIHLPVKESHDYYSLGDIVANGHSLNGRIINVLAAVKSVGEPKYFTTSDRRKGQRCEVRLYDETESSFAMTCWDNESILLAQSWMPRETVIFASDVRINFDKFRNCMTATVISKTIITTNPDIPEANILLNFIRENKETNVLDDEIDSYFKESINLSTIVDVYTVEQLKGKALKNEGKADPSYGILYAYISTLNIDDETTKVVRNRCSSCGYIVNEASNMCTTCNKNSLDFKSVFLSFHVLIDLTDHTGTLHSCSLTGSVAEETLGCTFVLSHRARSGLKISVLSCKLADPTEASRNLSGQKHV

Columns and labels:
[1] = biological target: MYC-FLAG-tagged human MEIOB ΔC helix (human); assay: co-IP
[2] = biological target: MYC-FLAG-tagged full-length human MEIOB (human) (UniProt Q8N635); assay: co-IP
[3] = biological target: GST-MEIOB (coexpressed with SPATA22 in insect cells) (UniProt Q8N635); assay: native gel or EMSA
[4] = biological target: GST-MEIOB (coexpressed with SPATA22 in insect cells) (UniProt Q8N635); assay: pull-down

Row | Binder | binding [1] | binding [2] | binding [3] | binding [4]
1 | 3xHA-tagged full-length human SPATA22 (protein, UniProt Q8NHS9 1-363) MKRSLNENSARSTAGCLPVPLFNQKKRNRQPLTSNPLKDDSGISTPSDNYDFPPLPTDWAWEAVNPELAPVMKTVDTGQIPHSVSRPLRSQDSVFNSIQSNTGRSQGGWSYRDGNKNTSLKTWNKNDFKPQCKRTNLVANDGKNSCPVSSGAQQQKQLRIPEPPNLSRNKETELLRQTHSSKISGCTMRGLDKNSALQTLKPNFQQNQYKKQMLDDIPEDNTLKETSLYQLQFKEKASSLRIISAVIESMKYWREHAQKTVLLFEVLAVLDSAVTPGPYYSKTFLMRDGKNTLPCVFYEIDRELPRLIRGRVHRCVGNYDQKKNIFQCVSVRPASVSEQKTFQAFVKIADVEMQYYINVMNET | binds | binds |  | 
2 | SPATA22 (coexpressed with GST-MEIOB in insect cells) (protein, UniProt Q8NHS9 1-363) MKRSLNENSARSTAGCLPVPLFNQKKRNRQPLTSNPLKDDSGISTPSDNYDFPPLPTDWAWEAVNPELAPVMKTVDTGQIPHSVSRPLRSQDSVFNSIQSNTGRSQGGWSYRDGNKNTSLKTWNKNDFKPQCKRTNLVANDGKNSCPVSSGAQQQKQLRIPEPPNLSRNKETELLRQTHSSKISGCTMRGLDKNSALQTLKPNFQQNQYKKQMLDDIPEDNTLKETSLYQLQFKEKASSLRIISAVIESMKYWREHAQKTVLLFEVLAVLDSAVTPGPYYSKTFLMRDGKNTLPCVFYEIDRELPRLIRGRVHRCVGNYDQKKNIFQCVSVRPASVSEQKTFQAFVKIADVEMQYYINVMNET |  |  | binds | binds
